The results in this text go back to PubChem BioAssay AID694 (Emory University Molecular Libraries Screening Center, 2007).

Sequences of proteins named here, by UniProt entry; tags and fusion partners are left off.
UniProt P03372, whole entry, looked up: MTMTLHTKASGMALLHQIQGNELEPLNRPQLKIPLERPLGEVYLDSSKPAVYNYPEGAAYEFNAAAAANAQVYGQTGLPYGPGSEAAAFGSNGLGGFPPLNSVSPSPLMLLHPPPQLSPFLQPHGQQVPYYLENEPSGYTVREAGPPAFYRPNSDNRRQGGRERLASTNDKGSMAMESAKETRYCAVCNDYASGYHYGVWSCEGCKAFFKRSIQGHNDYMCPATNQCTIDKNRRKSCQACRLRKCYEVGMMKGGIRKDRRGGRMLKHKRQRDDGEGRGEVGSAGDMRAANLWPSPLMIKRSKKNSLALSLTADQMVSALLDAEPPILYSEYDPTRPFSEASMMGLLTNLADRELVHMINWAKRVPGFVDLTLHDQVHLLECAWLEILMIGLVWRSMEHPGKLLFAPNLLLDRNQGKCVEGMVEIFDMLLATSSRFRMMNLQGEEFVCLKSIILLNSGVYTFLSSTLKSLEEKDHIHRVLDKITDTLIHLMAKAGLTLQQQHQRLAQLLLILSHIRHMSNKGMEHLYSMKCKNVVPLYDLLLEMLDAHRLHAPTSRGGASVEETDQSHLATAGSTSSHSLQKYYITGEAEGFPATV

“And” between values parts separate entries of the source, which are not always exact repeats. Equal entries are not always repeated. Some of the results follow. These are further read-outs of the screen, such as a control signal, another cell line or another target. No call is given for them.

The assay has as its target Estrogen receptor (Homo sapiens) (UniProt P03372). Briefly: ERα coactivator peptide binding inhibitors, primary screen, biochemical, LOPAC library, TR-FRET (AID 694).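 Note: receptor was agonist-bound with estradiol present during the assay.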 Conditions: TR-FRET ERalpha-coactivator peptide binding, at 15 µM, stronger effect = higher value. In general terms: TR-FRET usually uses a lanthanide donor and a delayed reading to cut background.
Consider `NOCC(=O)O`, for which the inhibition was -4.58%. Then `CCc1cccc2c3c([nH]c12)C(CC)(CC(=O)O)OCC3` (centres undefined), with -0.46%; and `O=C1N(c2ccccc2)c2ccccc2C1(Cc1ccncc1)Cc1ccncc1`, with 0.22%; and `CCCn1c(=O)c2[nH]c(-c3ccc(S(=O)(=O)O)cc3)nc2n(CCC)c1=O`, with -3.46%. In the case of `OC(CCN1CCCCC1)(c1ccccc1)C1CCCCC1` (centres undefined), the inhibition was determined as 3.29%. Next, `Cc1cn([C@H]2C[C@@H](N=[N+]=[N-])[C@@H](CO)O2)c(=O)[nH]c1=O`: -0.55%; `O=C(O)c1cc(=O)c2ccc(Cl)cc2[nH]1`: -2.77%. Next, `CCCCCCCCCCCCCCCCCC(=O)OC(CC(=O)O)C[N+](C)(C)C` (centres undefined): 2.65%; `NCCS(=O)O`: 1.83%; `Cc1nc2n(c(=O)c1CCN1CCC(c3noc4cc(F)ccc34)CC1)CCCC2`: 0.2%.

As to `OCc1cc(C(O)CNCCCCCCOCCCCc2ccccc2)ccc1O` (centres undefined), the inhibition came out at 0.91%.

Consider `C#CCN1C(C)=C(C(=O)OC)C(c2cccc([N+](=O)[O-])c2)C(C(=O)OCC)=C1C` (centres undefined), for which the inhibition is 0.98%. `COC(=O)[C@@H]1[C@H]2C[C@H]3c4[nH]c5ccccc5c4CCN3C[C@@H]2CC[C@@H]1O`: the inhibition was -7.57%. In the case of `O=C1CCc2cc(OCCCCc3nnnn3C3CCCCC3)ccc2N1`, the inhibition was -4.91%. Next, `CCCCCCCC/C=C\CCCCCCCC(=O)NCCc1ccc(O)c(O)c1`: -2.26%; `CC1CN(S(=O)(=O)c2cccc3cnccc23)CCN1` (centres undefined): 2.08%; `CCOC(=O)C1=C[C@]2(CC)CCCN3CCc4c(n1c1ccccc41)[C@@H]32`: 7.02%.

As to `CNCCC(Oc1ccccc1OC)c1ccccc1` (centres undefined), the inhibition was 4.35%. `CC1CNCCN1S(=O)(=O)c1cccc2cnccc12` (centres undefined): the inhibition is 0.6% and 1.64%. As to `O=C1C2C=CC=CC2=NC(=S)N1CCN1CCC(=C(c2ccc(F)cc2)c2ccc(F)cc2)CC1` (centres undefined), the inhibition is -0.24%. Take `CN1[C@@H](CC(=O)c2ccccc2)CCC[C@H]1C[C@H](O)c1ccccc1`: the inhibition came out at 2.91%. `Cc1[nH]c(=O)c(C#N)cc1-c1ccncc1`: the inhibition worked out at 2.68%.

In the case of `CN(C)CCC=C1c2ccccc2CCc2ccccc21`, the inhibition was 4.1%. In the case of `NC(=O)C(=O)O`, the inhibition is -2.52%. Then `COc1cc(Cc2cnc(N)nc2N)cc(OC)c1OC`, with 15%; and `CN(C)c1cc2c(Nc3ccc4c(cnn4Cc4ccccc4)c3)ncnc2cn1`, with -0.38%; and `NC(N)=NCc1cccc(I)c1`, with -3.52%. Regarding `CC(C)COC(=O)OCN1C(=O)CN(CCN2CC(=O)N(COC(=O)OCC(C)C)C(=O)C2)CC1=O`, the inhibition was found to be 1.43%.

For the compound `CN[C@H](CC(C)C)C(=O)N[C@H]1C(=O)N[C@@H](CC(N)=O)C(=O)N[C@H]2C(=O)N[C@H]3C(=O)N[C@H](C(=O)N[C@H](C(=O)O)c4cc(O)cc(O)c4-c4cc3ccc4O)[C@H](O)c3ccc(c(Cl)c3)Oc3cc2cc(c3O[C@@H]2O[C@H](CO)[C@@H](O)[C@H](O)[C@H]2O[C@H]2C[C@](C)(N)[C@H](O)[C@H](C)O2)Oc2ccc(cc2Cl)[C@H]1O`, the inhibition turned out to be 3.29%. As to `COc1ccc2c(c1)CCC1C2CC[C@@]2(C)C1CC[C@@H]2NCCCCCCN1C(=O)C=CC1=O` (some centres undefined), the inhibition came out at 15.4%. Take `NC(=S)c1ccc[n+]([C@@H]2O[C@@H](COP(=O)([O-])OP(=O)(O)OC[C@H]3O[C@@H](n4cnc5c(N)ncnc54)C(OP(=O)(O)O)[C@H]3O)C(O)C2O)c1` (some centres undefined): the inhibition worked out at 3.63%.

Regarding `CCCCC/C=C\CC(O)/C=C/c1cccc(CC(O)CCCCO)n1` (centres undefined), the inhibition came to 4.45%.

Turning to `O=C(O)c1ccccc1Nc1ccccc1`, the inhibition was -4.54%.

On to `CN1CCN(C2=Nc3cc(Cl)ccc3Nc3ccccc32)CC1`, for which the inhibition was -4.51%. Next, `C[C@H](Cc1ccccc1)Nc1ncnc2c1ncn2[C@@H]1O[C@H](CO)[C@H](O)C1O` (some centres undefined): 3.1%; `NC(Cc1cccc(-c2ccccc2CP(=O)(O)O)c1)C(=O)O` (centres undefined): 2.23%. For the compound `NCCCCNCCCN`, the inhibition is -5.98%. With `CC(C)NC[C@H](O)COc1ccc(CC(N)=O)cc1`, the inhibition is -2.11%. In the case of `CCOC(=O)C(C)(C)Oc1ccc(Cl)cc1`, the inhibition was -2.66%. With `CC(N)=NCCCC[C@@H](N)C(=O)O`, the inhibition stood at 1.12%.

For the compound `CO[C@@]1(NC(=O)CSCC#N)C(=O)N2C(C(=O)O)=C(CSc3nnnn3C)CS[C@@H]21`, the inhibition was 9.31%.

Take `CN1CCC(=C2c3ccccc3CC(=O)c3sccc32)CC1`: the inhibition is -6.19%. Then `O=c1ccc2ccc(O)c(O)c2o1`, with 11.7%; and `CN1CCc2ccccc2Cc2[nH]c3ccccc3c2CC1`, with 1.86%.

Consider `O=C(O)CCC(=O)N1CCCC1C(=O)O` (centres undefined), for which the inhibition stood at 2.06%. Then `CSc1ccc(C(=O)c2[nH]c(=O)[nH]c2C)cc1`, with 4.42%; and `S=C(Nc1ccccc1)Nc1nccs1`, with -3.09%; and `CN(Cc1cnc2nc(N)nc(N)c2n1)c1ccc(C(=O)N[C@@H](CCC(=O)O)C(=O)O)cc1`, with -7.46%. Then `CCCCCCCCCC(=O)NC(CN1CCOCC1)[C@H](O)c1ccccc1` (some centres undefined), with 7.7%. Take `COc1cc2c(CCNC(C)=O)c[nH]c2cc1Cl`: the inhibition was -2.79%. Then `Cc1ccc(S(=O)(=O)NC(=O)NN2CCCCCC2)cc1`, with 6.33%. Next, `C=CCn1c(=O)c2c(nc(-c3ccc(S(=O)(=O)O)cc3)n2C)n(C)c1=O`: -4.56%; `COc1cc(-c2ccc(=O)[nH]n2)ccc1OC(F)F`: 4.69%; `CC(N)=NCCC[C@H](N)C(=O)O`: -1.21%.

As for `CCCCNc1c(C(=O)OCC)c(C)nc2c1cnn2CC`, the inhibition worked out at 7.16%.

On to `O=c1[nH]c(=O)n([C@H]2C[C@H](O)[C@@H](CO)O2)cc1Br`, for which the inhibition was -0.87%. Take `Nc1ccc(CCNc2ncnc3c2ncn3C2OC(CO)C(O)C2O)cc1` (centres undefined): the inhibition is -21.8%.

For the compound `NC(N)=Nc1nc(CSCC/C(N)=N/S(N)(=O)=O)cs1`, the inhibition was 2.25%. For `NC1C=CC=C(C(=O)O)C1` (centres undefined), the inhibition was -0.85%. In the case of `CC1=C(/C=C/C(C)=C/C=C/C(C)=C\C(=O)O)C(C)(C)CCC1`, the inhibition was 2.09%. In the case of `CC(C)c1ccc2c(c1)c(SC(C)(C)C)c(CC(C)(C)C(=O)O)n2Cc1ccc(Cl)cc1`, the inhibition was 27.3%. Take `Clc1ccc(N2CCN(Cc3c[nH]c4ncccc34)CC2)cc1`: the inhibition is -3.73%. Regarding `CC(C)(C)c1ccc(C(O)CCCN2CCC(C(O)(c3ccccc3)c3ccccc3)CC2)cc1` (centres undefined), the inhibition amounted to 4.21%. Turning to `c1ccc2nc(C3=NCCN3)ccc2c1`, the inhibition is -2.32%.

Turning to `NCCCNCCSP(=O)(O)O`, the inhibition was -4.52%. As for `Nc1ncnc2c1ncn2C1CCCO1` (centres undefined), the inhibition was 6.44%. As for `Nc1ccn([C@@H]2O[C@H](CO)[C@@H](O)[C@@H]2O)c(=O)n1`, the inhibition was -0.14%. As to `CCCCCCCCCCCCCCCCOCC(COCC(F)(F)F)OP(=O)(O)OCO` (centres undefined), the inhibition came to 8.86%. As for `N[C@@H](Cc1ccc(O)c(I)c1)C(=O)O`, the inhibition was determined as 0.02%. Then `CC(C)Cn1c(=O)n(C)c(=O)c2[nH]cnc21`, with -4.17%. Take `CCCCOc1cc(CC2CNC(=O)N2)ccc1OC` (centres undefined): the inhibition was found to be 1.94%.

With `CC(C)(C)NCC(O)COc1cccc2[nH]c(=O)[nH]c12` (centres undefined), the inhibition was 3.87%. Next, `CCCOc1ccccc1-c1nc2n[nH]nc2c(=O)[nH]1`: 1.89%; `COc1cccc(C(=O)NCCN2CCN(c3ccc(Cl)cc3)CC2)c1`: 3.58%. Then `CN(C)C(=O)Oc1ccc[n+](C)c1`, with 1.65%. As for `Nc1c2c(nc3ccccc13)CCCC2O` (centres undefined), the inhibition was -2.77%. As for `O=C(O)CP(=O)(O)O`, the inhibition was determined as 2.79%. On to `Cn1ccc2cc3c(cc21)CCN3C(=O)Nc1cccnc1`, for which the inhibition turned out to be 6.62%. With `CCN(CC)CCCCCCCCOC(=O)c1cc(OC)c(OC)c(OC)c1`, the inhibition was -0.7%. Regarding `N#C/C(=C\c1ccc(O)c(O)c1)C(=O)NCc1ccccc1`, the inhibition stood at 2.03%.

In the case of `C#CCn1c(=O)c2c(ncn2C)n(C)c1=O`, the inhibition was -5.36%. Regarding `CCCN(CCc1ccccc1)C1CCc2c(O)cccc2C1` (centres undefined), the inhibition was 0.98%. `O=C(O)C1=CCCN(CCON=C(c2ccccc2)c2ccccc2)C1`: the inhibition is -8.58%.

Regarding `CCN(c1nc(N)c(C(=O)N=C(N)N)nc1Cl)C(C)C`, the inhibition is -2.21%.

`CO/N=C(\C(=O)N[C@@H]1C(=O)N2C(C(=O)O)=C(CSc3nc(=O)c(O)nn3C)CSC12)c1csc(N)n1` (some centres undefined): the inhibition was 3.04%.

In the case of `CNC(=O)[C@H]1O[C@@H](n2cnc3c(N)ncnc32)C(O)[C@H]1O` (some centres undefined), the inhibition was -1.45%.

`CC(C)(CO)Cc1cc(C(C)(C)C)c(O)c(C(C)(C)C)c1`: the inhibition was -7.02%. Turning to `C#CCN(C)CCCOc1ccc(Cl)cc1Cl`, the inhibition was -1.39%.

As for `CCCn1cnc2c1c(=O)n(CCCCC(C)=O)c(=O)n2C`, the inhibition came out at 5.12%. With `CC(=O)/C(C)=N/O`, the inhibition is -3.28%. In the case of `CC(C)NCC(O)c1cc(O)cc(O)c1` (centres undefined), the inhibition was -1.51%. In the case of `COCC(=O)O[C@]1(CCN(C)CCCc2nc3ccccc3[nH]2)CCc2cc(F)ccc2[C@@H]1C(C)C`, the inhibition was -1.31%. In the case of `C=C1C(=O)O[C@@H]2[C@H]3O[C@]3(C)CCC=C(C)CC[C@@H]12`, the inhibition is 3.58%. Next, `CNCCCN1c2ccccc2CCc2ccccc21`: -4.5%.

As to `Cc1cccc(C(=O)NCN2CCN(c3ccccc3C#N)CC2)c1`, the inhibition was -4%. In the case of `NC1(C(=O)O)CCc2cc(C(=O)O)ccc21` (centres undefined), the inhibition is -2.64%.

With `Fc1ccc([C@@H]2CCNC[C@H]2COc2ccc3c(c2)OCO3)cc1`, the inhibition is -7%. For `Cc1cc(O)c2c(c1)C(=O)c1cc(O)cc(O)c1C2=O`, the inhibition came to 3.1%. Turning to `Nc1ccc2c3c(cccc13)C(=O)NC2=O`, the inhibition is -4.41%.

For the compound `CN(C)C(=O)Oc1cccc([N+](C)(C)C)c1`, the inhibition was -2.66%. Regarding `Cc1ccc2c(c1)C(N1CCN(C)CC1)=Nc1cccnc1N2`, the inhibition was determined as 3.01%. Next, `O=C1C(SCCO)=C(SCCO)C(=O)c2ccccc21`: -3.42%; `CC(C)C(=O)Nc1ccc([N+](=O)[O-])c(C(F)(F)F)c1`: 6.48%. Take `COc1c2c(nc3ccccc13)OC(C(C)(O)CO)C2` (centres undefined): the inhibition is 2.81%.

On to `N[C@H](C(=O)O)[C@H]1C[C@@H]1C(=O)O`, for which the inhibition came to 12.2%. Regarding `COC(=O)C(N)Cc1ccc(Cl)cc1` (centres undefined), the inhibition is 5.72%. Next, `CCN1CCC[C@H]1CNC(=O)c1c(O)c(Cl)cc(Cl)c1OC`: 2.3%. Take `O=C(O)c1cccnc1C(=O)O`: the inhibition is -0.64%. Regarding `Nc1ncnc2c1ncn2[C@@H]1O[C@H](CO)[C@H](O)C1O` (some centres undefined), the inhibition is -1.88%. `COC(=O)C1=C(C)NC(C)=C(C(=O)OCCN(C)Cc2ccccc2)C1c1cccc([N+](=O)[O-])c1` (centres undefined): the inhibition was 1.94%.

As to `Cc1ccccc1C(OCCN(C)C)c1ccccc1` (centres undefined), the inhibition turned out to be 4.97%. Turning to `CNC(=O)[C@H]1O[C@@H](n2cnc3c(NCc4ccc(N)cc4)ncnc32)C(O)[C@H]1O` (some centres undefined), the inhibition is -4.59%. Consider `CC(C)=CCC/C(C)=C/CC/C(C)=C/CSc1ccccc1C(=O)O`, for which the inhibition was determined as 11%. Consider `COc1ccc(NC(=O)c2ccc(-c3ccc(-c4noc(C)n4)cc3C)cc2)cc1N1CCN(C)CC1`, for which the inhibition stood at 3.73%.

For orientation: inhibition means the drop in the measured response relative to a control, in per cent.
